Measured values reported in patent US20110189154A1.
These are yes or no findings as the source states them, for the method shown. In cells and extracts the contact can be indirect. Some binding calls cover weakened binding; strength is not graded here. Where a sequence is shown, tags or fusion partners need not be part of it.

Key:
[1] = biological target: T1, Tsa1 (S. cerevisiae 2-Cys peroxyredoxin) (S. cerevisiae) (UniProt P34760); assay: copurification on Ni-NTA, SDS-PAGE, Coomassie, MALDI-TOF (FIG. 7b)
T1 sequence (looked up): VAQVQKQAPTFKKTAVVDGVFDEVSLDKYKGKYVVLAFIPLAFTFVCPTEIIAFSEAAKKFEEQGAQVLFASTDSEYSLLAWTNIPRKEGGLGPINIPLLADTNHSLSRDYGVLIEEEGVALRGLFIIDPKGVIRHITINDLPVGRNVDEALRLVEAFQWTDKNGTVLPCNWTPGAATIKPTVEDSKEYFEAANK

[2] = biological target: T1, Tsa1 (S. cerevisiae 2-Cys peroxyredoxin) (S. cerevisiae); assay: copurification with 6His-Srx1, MALDI-TOF of reduced and nonreduced bands (both proteins in the 55 kDa band)

binding [1]: binds
binding [2]: binds
B1: 6His-Srx1 (S. cerevisiae sulfiredoxin Srx1 with six histidines at its N-terminal end) (enzyme)
chain: HHHHHHMSLQSNSVKPTEIPLSEIRRPLAPVLDPQKIDAMVATMKGIPTASKTCSLEQAEAAASAGELPPVDVLGVRVKGQTLYYAFGGCHRLQAYDRRARETQNAAFPVRCRVLPATPRQIRMYLGSSLDIE
